Data taken from the supplement of paper PMC11006884.
This list holds what a sample rich in targets with a hit left over. The data scatter; read single values as rough. Only a part is listed here, and it is no random draw.

Chains of the proteins cited; added tags and fusions are not shown. Lines headed by an entry give the natural chain unless they say otherwise; changes in a name come on top.
UniProt O15067: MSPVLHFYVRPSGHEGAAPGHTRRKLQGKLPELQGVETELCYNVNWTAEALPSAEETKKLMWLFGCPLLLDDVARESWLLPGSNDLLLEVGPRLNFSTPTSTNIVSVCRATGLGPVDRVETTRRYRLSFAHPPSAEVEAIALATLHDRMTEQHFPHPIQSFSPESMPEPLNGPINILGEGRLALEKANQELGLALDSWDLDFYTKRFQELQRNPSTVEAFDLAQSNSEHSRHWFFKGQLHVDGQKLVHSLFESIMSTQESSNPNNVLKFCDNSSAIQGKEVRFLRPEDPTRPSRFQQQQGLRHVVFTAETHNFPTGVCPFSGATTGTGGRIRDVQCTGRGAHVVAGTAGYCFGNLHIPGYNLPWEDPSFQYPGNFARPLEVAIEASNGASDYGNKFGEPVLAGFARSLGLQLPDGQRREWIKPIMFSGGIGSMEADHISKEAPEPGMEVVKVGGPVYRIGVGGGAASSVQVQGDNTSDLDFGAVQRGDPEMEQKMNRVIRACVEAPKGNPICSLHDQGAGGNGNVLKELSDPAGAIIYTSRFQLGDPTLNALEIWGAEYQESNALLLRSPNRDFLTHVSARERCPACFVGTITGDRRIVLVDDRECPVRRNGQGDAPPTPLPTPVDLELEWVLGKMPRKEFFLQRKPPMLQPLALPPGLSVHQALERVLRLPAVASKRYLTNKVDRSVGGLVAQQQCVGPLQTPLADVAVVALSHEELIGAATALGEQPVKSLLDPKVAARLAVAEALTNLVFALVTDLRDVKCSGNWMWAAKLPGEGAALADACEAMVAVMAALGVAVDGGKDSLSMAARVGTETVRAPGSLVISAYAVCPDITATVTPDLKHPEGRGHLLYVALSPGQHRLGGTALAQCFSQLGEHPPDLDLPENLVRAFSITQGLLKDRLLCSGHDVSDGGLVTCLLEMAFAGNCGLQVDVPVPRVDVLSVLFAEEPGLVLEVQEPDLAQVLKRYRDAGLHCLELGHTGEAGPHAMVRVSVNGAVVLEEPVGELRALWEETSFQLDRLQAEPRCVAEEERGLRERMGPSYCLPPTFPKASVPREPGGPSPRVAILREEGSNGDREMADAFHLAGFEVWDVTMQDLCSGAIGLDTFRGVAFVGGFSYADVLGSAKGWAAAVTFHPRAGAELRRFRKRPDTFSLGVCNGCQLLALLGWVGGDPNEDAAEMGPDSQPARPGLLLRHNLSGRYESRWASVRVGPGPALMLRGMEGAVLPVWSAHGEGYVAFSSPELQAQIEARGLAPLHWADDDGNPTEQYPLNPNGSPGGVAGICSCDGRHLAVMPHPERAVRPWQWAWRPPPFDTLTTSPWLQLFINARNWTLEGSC
UniProt O15417: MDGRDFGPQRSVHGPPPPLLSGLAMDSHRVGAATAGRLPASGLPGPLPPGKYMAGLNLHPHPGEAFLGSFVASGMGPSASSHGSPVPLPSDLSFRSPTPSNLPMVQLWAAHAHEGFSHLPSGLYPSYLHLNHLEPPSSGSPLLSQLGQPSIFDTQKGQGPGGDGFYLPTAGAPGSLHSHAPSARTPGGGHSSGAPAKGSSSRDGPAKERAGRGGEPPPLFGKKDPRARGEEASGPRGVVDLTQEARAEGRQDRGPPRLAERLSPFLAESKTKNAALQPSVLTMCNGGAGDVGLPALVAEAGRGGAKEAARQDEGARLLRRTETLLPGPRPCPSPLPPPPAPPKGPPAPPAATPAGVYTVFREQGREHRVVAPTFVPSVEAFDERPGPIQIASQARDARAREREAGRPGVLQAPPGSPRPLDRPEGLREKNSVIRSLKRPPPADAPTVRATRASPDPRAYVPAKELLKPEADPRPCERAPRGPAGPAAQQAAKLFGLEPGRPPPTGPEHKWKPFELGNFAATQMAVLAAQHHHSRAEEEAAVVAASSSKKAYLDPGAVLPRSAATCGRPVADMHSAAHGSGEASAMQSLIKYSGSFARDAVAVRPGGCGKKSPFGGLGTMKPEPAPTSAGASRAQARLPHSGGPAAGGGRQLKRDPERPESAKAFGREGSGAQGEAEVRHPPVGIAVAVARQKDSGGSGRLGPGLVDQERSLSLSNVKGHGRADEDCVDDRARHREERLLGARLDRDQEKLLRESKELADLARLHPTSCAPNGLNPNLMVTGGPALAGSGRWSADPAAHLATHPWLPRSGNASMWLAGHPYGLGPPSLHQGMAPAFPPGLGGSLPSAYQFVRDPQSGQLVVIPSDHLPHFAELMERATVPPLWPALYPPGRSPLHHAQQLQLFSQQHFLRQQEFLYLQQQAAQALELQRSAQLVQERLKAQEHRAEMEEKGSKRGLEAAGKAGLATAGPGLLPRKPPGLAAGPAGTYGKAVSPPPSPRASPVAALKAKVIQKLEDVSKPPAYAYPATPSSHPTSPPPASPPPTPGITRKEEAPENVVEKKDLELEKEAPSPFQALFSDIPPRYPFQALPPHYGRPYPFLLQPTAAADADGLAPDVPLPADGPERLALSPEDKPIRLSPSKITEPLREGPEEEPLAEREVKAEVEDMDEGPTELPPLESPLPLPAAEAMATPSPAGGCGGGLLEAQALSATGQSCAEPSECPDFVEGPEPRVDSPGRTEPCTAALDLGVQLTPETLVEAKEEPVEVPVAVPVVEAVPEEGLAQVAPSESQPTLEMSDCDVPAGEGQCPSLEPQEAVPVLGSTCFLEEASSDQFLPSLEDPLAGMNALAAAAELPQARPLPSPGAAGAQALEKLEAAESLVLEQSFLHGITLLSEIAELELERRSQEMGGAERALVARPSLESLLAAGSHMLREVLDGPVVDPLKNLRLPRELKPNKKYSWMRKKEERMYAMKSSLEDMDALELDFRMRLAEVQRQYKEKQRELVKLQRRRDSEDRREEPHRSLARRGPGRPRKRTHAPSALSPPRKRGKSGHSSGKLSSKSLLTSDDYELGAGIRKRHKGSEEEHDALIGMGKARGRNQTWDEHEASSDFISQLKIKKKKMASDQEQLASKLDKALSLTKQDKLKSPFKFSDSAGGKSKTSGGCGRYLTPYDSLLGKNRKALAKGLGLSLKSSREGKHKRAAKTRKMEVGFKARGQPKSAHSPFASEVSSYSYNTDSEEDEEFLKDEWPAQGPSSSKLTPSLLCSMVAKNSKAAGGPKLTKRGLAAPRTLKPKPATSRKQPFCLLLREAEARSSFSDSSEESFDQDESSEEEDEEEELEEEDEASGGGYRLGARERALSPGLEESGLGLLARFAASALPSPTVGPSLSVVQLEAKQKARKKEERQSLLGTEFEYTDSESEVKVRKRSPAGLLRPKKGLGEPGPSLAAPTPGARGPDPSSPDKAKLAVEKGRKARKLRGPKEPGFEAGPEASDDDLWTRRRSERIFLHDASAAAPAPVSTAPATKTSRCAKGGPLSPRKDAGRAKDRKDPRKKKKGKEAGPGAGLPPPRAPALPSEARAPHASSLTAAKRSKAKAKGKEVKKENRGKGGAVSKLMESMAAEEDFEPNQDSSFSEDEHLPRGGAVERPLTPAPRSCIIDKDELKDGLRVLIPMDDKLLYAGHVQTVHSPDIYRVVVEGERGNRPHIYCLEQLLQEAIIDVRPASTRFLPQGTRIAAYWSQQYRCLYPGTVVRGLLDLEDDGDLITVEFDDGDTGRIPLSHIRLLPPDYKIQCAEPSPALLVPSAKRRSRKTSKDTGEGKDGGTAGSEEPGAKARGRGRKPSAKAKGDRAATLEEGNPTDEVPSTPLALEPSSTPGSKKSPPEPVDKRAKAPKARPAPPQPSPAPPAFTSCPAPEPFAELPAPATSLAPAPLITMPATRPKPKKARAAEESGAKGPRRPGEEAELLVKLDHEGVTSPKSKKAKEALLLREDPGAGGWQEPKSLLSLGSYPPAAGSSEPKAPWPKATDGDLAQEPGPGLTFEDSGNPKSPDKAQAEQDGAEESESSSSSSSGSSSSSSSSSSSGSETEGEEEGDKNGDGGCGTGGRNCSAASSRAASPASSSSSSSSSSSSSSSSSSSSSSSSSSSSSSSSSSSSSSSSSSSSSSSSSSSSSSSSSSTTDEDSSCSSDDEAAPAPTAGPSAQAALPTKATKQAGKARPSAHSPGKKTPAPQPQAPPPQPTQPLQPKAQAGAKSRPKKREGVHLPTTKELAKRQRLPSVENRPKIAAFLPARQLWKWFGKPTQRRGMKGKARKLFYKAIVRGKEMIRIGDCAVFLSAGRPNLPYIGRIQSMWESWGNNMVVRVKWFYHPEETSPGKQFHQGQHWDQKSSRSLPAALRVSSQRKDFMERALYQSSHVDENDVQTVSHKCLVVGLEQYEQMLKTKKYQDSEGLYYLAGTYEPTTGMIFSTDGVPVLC
UniProt O00178: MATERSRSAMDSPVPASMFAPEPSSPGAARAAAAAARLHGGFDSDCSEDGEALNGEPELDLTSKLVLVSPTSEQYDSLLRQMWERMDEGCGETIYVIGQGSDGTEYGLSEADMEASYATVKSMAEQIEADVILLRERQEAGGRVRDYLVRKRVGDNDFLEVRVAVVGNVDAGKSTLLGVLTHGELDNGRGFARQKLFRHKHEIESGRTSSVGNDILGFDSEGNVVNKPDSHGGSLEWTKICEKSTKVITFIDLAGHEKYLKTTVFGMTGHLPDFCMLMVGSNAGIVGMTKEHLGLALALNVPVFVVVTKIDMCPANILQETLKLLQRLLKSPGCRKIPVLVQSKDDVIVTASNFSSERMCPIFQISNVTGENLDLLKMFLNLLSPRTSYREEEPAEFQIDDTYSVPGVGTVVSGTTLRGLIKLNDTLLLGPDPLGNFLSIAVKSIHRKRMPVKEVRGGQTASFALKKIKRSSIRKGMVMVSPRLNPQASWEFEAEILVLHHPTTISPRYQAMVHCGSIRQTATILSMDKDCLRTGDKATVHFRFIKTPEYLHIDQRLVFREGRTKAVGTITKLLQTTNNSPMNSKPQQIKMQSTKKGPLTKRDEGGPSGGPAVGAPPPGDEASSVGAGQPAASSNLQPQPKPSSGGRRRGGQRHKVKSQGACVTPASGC
UniProt O00762: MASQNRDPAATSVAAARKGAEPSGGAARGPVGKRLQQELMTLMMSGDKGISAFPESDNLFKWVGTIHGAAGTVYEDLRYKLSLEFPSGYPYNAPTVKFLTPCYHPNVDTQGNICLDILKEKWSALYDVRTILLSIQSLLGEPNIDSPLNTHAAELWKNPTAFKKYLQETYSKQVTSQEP
UniProt O43159: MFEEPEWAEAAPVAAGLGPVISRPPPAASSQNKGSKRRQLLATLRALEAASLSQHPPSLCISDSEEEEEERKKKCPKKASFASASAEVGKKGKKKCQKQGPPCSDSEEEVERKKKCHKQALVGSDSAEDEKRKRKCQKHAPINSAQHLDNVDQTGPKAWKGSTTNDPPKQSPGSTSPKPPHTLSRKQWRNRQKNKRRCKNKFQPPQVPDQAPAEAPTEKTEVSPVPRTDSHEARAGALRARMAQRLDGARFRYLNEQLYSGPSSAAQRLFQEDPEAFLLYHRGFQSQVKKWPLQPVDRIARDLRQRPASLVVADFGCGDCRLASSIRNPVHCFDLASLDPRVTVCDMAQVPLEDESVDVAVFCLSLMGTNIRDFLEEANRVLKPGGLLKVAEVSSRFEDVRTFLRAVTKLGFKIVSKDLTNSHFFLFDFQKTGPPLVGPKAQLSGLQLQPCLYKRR
UniProt O15381: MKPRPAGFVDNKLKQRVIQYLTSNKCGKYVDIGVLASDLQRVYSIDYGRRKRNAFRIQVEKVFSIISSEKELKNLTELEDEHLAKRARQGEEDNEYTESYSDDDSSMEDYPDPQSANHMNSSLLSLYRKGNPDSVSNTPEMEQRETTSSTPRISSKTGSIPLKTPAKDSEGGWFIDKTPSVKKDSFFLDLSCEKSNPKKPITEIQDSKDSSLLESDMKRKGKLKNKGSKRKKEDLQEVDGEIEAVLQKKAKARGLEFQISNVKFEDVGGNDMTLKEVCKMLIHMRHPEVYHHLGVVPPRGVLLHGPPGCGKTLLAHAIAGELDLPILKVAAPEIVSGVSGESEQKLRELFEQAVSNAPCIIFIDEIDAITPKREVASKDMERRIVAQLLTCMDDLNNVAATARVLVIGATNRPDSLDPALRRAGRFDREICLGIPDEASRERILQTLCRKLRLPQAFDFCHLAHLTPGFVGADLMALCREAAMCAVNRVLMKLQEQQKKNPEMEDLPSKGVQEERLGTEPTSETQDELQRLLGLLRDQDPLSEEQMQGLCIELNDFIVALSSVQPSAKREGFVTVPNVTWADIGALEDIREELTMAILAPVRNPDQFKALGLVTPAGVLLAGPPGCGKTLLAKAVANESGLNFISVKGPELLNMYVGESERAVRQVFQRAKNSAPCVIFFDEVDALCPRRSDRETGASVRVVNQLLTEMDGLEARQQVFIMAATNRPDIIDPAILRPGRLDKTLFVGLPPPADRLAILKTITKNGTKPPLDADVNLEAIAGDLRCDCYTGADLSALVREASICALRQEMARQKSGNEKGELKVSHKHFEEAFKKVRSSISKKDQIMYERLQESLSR

compound: COC(=O)/C=C/c1ccccc1 [methyl cinnamate]; test: log2 ratio of iodoacetamide-alkyne labeling of the cysteine site, DMSO over compound (competition); higher = stronger covalent engagement of the cysteine by the compound, active = 1 or more; conditions: 500 µM; treatment time 1 h; system: HEK293T cell lysate
Outline: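 HEK293T lysate (2 mg/mL) was treated with DMSO or electrophile (500 µM, 1 h, ambient temperature), then iodoacetamide alkyne (1 h), clicked to sCIP-TMT reagents, pooled, trypsin-digested overnight at 37 °C, streptavidin-enriched and acid-eluted. Peptides were run on Orbitrap Eclipse LC-MS/MS with FAIMS and quantified in FragPipe. The log2 competition ratio per cysteine is mean control-channel over mean compound-channel reporter intensity. Duplicate channels and three replicates were used, and cysteines quantified in only one replicate were excluded.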

log2 ratio of iodoacetamide-alkyne labeling, inactive:
ARHGEF11 C402 (UniProt O15085) 0.196
TRIM24 C629 (UniProt O15164) 0.343
SETD1A C243 (UniProt O15047) 0.182
XPO1 C327 (UniProt O14980) -0.0497
CD3EAP C107 (UniProt O15446) 0.22
APAF1 C258 (UniProt O14727) -0.0214
NKRF C453 (UniProt O15226) 0.201
PDLIM1 C260 (UniProt O00151) 0.105
PHGDH C48 (UniProt O43175) 0.115
PFAS C1285 (UniProt O15067) 0.292
POLRMT C591 (UniProt O00411) -0.29
PRMT5 C42 (UniProt O14744) 0.0154
WASL C431 (UniProt O00401) 0.627
HGS C212 (UniProt O14964) 0.149
PSMD9 C59 (UniProt O00233) 0.152
TNRC18 C2288 (UniProt O15417) 0.138
UniProt A8MW92_C472 0.333
GTPBP1 C669 (UniProt O00178) 0.467
UBE2C C114 (UniProt O00762) 0.461
TRIM24 C56 (UniProt O15164) -0.107
PFAS C871 (UniProt O15067) -0.22
IPO5 C733 (UniProt O00410) 0.0276
UniProt O43159_C320 0.0311
NVL C448 (UniProt O15381) 0.287
AP3D1 C208 (UniProt O14617) -0.0511
NKRF C37 (UniProt O15226) 0.103
EI24 C24 (UniProt O14681) 0.249
OGT C962 (UniProt O15294) -0.0988
IPO5 C110 (UniProt O00410) 0.394
APAF1 C115 (UniProt O14727) 0.193
PFAS C318 (UniProt O15067) -0.245
PFAS C606 (UniProt O15067) 0.278
PES1 C361 (UniProt O00541) 0.163
POLRMT C765 (UniProt O00411) 0.219
KMT2D C58 (UniProt O14686) 0.276
HAT1 C120 (UniProt O14929) 0.402
UniProt O43159_C317 0.0311

At a glance, part of the list above:
log2 ratio of iodoacetamide-alkyne labeling, inactive:
UniProt O43159_C320 0.0311
NVL C448 (UniProt O15381) 0.287
AP3D1 C208 (UniProt O14617) -0.0511
